# Assay results published in the supplement of paper PMC6411743.
# Chains of the proteins cited; added tags and fusions are not shown. Lines headed by an entry give the natural chain unless they say otherwise; changes in a name come on top.
# UniProt Q14160: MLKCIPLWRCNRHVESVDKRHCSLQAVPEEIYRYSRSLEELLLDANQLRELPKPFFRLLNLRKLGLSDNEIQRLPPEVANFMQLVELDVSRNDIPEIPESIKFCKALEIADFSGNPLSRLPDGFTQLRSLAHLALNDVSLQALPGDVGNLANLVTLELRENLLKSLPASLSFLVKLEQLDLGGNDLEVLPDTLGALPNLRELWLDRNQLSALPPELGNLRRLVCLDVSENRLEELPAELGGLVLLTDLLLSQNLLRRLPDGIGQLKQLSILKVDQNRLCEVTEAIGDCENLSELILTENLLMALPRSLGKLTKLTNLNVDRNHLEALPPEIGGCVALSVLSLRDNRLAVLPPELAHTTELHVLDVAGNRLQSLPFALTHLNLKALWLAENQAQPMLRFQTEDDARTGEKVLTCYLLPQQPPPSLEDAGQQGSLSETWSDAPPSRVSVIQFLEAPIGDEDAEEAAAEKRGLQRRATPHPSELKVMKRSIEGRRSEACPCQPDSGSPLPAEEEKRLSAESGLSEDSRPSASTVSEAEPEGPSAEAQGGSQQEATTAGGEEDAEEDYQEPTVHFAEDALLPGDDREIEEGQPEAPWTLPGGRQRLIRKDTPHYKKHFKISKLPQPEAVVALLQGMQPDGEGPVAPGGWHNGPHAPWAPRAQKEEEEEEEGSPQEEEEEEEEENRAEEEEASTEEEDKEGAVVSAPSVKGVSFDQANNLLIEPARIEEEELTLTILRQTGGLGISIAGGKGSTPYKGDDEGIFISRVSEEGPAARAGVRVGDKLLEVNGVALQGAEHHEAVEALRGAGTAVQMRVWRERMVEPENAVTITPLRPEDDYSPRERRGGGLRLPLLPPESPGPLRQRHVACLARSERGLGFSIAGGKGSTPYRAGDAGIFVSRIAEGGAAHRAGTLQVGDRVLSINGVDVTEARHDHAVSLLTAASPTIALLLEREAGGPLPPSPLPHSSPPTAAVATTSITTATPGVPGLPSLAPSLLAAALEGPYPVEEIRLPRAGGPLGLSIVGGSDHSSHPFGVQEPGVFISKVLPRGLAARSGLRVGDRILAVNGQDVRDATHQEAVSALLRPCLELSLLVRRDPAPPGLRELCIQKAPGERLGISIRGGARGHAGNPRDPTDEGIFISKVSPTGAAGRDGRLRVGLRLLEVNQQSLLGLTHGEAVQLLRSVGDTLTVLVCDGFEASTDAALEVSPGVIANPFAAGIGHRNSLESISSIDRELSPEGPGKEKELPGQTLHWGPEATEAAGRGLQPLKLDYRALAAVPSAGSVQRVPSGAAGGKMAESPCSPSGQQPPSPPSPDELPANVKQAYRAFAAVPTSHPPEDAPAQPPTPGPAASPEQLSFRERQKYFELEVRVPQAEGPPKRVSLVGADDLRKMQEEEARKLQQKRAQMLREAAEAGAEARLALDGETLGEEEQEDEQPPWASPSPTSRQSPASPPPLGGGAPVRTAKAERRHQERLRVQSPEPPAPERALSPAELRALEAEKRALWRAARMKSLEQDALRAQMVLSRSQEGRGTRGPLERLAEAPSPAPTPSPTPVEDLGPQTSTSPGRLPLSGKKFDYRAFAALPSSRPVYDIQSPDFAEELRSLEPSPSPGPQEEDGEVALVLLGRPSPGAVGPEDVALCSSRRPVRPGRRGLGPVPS
# UniProt P56556, whole entry: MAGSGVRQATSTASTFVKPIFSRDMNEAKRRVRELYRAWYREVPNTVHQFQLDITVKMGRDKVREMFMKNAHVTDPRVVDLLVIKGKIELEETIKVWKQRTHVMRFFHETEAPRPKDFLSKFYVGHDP
# UniProt Q7Z3E5: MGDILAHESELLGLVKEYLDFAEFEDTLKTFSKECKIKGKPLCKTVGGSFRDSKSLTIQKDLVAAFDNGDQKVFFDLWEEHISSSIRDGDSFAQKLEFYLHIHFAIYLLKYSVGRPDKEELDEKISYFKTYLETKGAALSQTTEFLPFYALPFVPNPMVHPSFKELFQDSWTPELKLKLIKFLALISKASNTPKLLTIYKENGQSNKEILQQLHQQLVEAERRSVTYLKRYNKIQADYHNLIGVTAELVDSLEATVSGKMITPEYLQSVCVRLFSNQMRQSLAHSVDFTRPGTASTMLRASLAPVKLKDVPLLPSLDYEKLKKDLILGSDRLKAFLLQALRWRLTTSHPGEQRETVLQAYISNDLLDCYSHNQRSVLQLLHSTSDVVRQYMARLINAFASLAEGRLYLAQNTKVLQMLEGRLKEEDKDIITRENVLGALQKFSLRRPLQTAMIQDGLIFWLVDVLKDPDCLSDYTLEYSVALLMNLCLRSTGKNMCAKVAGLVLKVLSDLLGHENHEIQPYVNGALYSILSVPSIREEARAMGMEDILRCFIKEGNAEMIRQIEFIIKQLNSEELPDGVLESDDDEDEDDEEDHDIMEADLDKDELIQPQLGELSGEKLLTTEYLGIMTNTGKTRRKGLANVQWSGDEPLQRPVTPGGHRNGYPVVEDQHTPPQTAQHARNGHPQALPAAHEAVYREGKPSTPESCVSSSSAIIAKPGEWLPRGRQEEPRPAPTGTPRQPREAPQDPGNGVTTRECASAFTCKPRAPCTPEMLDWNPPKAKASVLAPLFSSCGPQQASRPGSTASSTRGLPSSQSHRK
# UniProt Q04206, whole entry: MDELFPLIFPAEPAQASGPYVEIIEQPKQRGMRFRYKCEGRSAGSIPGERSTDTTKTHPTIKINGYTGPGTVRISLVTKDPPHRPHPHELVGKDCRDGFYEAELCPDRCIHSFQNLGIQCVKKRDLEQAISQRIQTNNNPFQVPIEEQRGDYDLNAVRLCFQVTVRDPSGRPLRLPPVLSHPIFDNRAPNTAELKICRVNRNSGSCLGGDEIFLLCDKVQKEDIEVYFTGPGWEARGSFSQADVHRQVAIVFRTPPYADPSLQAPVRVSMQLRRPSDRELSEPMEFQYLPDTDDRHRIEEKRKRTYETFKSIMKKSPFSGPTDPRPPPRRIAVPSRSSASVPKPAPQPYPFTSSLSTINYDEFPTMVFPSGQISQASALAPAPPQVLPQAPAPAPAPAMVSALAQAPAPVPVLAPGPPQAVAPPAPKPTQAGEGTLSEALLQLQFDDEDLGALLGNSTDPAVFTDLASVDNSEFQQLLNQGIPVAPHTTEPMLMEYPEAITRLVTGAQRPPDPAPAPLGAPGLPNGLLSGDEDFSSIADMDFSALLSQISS
# UniProt Q6DN90: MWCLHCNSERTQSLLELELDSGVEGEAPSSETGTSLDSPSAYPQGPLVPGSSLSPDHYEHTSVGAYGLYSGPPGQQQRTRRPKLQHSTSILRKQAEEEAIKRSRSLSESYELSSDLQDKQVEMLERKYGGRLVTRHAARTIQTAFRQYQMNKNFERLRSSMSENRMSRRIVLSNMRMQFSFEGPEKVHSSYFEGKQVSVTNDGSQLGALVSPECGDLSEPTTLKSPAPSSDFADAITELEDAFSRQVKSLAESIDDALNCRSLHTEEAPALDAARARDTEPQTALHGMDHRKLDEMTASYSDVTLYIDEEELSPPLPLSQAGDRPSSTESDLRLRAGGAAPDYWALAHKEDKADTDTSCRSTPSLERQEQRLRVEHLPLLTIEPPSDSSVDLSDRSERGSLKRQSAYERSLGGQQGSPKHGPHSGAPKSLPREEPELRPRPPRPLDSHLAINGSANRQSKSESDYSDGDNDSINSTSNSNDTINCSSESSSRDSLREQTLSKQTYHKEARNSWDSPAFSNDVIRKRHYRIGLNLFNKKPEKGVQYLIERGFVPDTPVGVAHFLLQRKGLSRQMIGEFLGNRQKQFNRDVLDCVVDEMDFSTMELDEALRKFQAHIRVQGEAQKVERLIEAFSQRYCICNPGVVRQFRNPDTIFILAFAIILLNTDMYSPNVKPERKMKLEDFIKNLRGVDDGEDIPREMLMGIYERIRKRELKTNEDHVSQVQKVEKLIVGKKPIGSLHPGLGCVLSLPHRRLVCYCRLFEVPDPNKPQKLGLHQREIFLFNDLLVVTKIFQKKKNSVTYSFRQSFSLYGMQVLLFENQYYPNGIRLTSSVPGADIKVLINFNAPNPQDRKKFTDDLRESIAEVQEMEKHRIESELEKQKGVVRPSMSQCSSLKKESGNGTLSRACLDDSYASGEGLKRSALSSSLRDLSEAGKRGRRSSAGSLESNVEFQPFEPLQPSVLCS
# UniProt O94953: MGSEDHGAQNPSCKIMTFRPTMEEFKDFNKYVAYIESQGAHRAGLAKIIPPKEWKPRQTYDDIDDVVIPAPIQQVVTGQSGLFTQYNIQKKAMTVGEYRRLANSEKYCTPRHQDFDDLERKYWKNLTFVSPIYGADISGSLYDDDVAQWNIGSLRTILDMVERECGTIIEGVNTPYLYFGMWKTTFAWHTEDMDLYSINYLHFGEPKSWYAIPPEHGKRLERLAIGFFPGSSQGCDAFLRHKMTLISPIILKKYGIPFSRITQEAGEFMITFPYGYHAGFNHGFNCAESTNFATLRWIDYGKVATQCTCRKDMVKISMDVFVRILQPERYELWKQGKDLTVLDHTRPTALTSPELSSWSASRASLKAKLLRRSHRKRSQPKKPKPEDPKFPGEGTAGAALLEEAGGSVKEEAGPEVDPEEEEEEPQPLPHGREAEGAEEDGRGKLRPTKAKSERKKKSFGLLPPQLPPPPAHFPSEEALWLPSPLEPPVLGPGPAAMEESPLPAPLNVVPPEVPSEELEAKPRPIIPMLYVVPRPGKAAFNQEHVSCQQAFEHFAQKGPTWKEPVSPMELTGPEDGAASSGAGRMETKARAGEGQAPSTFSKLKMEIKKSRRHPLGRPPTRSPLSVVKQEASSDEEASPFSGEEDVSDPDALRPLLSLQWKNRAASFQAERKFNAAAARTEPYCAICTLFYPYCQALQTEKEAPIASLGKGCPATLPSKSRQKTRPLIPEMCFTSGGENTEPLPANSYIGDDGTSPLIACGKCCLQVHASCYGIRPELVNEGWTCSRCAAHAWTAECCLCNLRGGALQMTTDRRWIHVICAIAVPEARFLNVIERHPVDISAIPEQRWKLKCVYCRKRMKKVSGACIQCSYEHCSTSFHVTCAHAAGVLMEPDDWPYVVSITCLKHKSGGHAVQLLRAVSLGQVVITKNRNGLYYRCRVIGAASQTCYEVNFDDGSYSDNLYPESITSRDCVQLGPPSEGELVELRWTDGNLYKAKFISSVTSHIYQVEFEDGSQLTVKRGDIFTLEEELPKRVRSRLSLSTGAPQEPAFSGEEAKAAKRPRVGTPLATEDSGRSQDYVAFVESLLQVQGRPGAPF
# UniProt Q8IWS0: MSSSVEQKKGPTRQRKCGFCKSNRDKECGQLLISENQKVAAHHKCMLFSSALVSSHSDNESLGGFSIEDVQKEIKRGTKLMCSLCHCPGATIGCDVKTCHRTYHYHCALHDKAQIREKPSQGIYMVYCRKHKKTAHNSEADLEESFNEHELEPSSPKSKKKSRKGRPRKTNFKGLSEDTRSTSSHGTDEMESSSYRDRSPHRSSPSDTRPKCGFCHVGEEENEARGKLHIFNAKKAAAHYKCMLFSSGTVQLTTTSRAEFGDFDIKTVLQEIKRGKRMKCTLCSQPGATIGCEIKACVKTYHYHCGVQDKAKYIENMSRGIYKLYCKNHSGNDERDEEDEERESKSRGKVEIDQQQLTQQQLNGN
# UniProt Q14527: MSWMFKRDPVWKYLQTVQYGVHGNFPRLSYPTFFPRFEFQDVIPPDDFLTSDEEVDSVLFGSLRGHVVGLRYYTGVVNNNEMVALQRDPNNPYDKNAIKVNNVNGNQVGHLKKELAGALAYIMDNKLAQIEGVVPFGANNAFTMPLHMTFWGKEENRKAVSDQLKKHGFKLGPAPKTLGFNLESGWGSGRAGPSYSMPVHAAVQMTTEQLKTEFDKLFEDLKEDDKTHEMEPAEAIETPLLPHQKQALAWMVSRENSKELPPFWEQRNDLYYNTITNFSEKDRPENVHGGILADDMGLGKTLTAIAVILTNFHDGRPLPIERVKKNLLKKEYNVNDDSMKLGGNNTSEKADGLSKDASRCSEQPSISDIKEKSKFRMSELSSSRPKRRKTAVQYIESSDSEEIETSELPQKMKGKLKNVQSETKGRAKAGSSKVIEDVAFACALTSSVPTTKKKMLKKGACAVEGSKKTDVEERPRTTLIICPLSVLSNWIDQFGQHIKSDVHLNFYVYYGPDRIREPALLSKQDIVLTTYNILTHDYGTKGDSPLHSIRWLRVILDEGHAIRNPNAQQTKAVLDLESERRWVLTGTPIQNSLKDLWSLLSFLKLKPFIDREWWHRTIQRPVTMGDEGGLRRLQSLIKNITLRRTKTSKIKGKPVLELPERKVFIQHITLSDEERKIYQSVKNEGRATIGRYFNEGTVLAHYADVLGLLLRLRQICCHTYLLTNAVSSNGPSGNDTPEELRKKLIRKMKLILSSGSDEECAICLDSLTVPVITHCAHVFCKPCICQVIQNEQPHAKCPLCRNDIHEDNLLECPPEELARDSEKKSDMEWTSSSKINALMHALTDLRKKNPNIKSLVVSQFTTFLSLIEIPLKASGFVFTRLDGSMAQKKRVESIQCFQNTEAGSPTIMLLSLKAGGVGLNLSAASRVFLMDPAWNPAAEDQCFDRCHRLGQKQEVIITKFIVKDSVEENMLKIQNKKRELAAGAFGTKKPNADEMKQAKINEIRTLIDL
# ± gives the standard deviation of the averaged measurements. This is a selection; strong and weak results do not stand in their true shares.
# Compound: Nc1ncnc2c1ncn2[C@@H]1O[C@H](COP(=O)(O)OP(=O)(O)NP(=O)(O)O)[C@@H](O)[C@H]1O [adenylyl imidodiphosphate]
# Test: NP40-soluble protein abundance relative to vehicle (solubility fold change) (ratio); higher = more soluble protein in presence of AMP-PNP
# Procedure, shortened: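 Crude Jurkat lysate, prepared by Dounce homogenisation, was exposed to eight concentrations from 0.1 to 10 mM for 10 min at room temperature and then 3 min at 37 °C. Solubilisation used 0.8% NP40 with benzonase for 60 min at 4 °C, followed by ultracentrifugation and TMT labelling of the supernatant for LC-MS/MS. After vsn normalisation of intensities, each value is the fold change against the detergent-processed vehicle within each replicate, across three independent experiments.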
Target,NP40-soluble protein abundance (concentration: 1mM),NP40-soluble protein abundance (concentration: 2mM),NP40-soluble protein abundance (concentration: 4mM),NP40-soluble protein abundance (concentration: 6mM),NP40-soluble protein abundance (concentration: 8mM),NP40-soluble protein abundance (concentration: 10mM)
A0A0U1RRC9|P57075 and related entries (UniProt P57075),0.992 ± 0.056,0.957 ± 0.056,1.01 ± 0.034,0.981 ± 0.029,0.996 ± 0.025,0.986 ± 0.024
A0A0A0MRE6|O94967 and related entries (UniProt O94967),1.01 ± 0.025,1.02 ± 0.039,1.023 ± 0.0068,0.999 ± 0.039,0.984 ± 0.026,0.985 ± 0.031
A0A0A6YYG7|Q6IBW4 and related entries (UniProt Q6IBW4),0.987 ± 0.047,1.03 ± 0.011,0.994 ± 0.038,1.01 ± 0.042,0.988 ± 0.029,1.02 ± 0.073
A0A087WYG2|E9PFH7 and related entries (UniProt Q9UPT6),1.01 ± 0.034,1.03 ± 0.025,1.03 ± 0.025,0.988 ± 0.026,0.981 ± 0.022,1 ± 0.023
A0A0B4J2C3|P13693 and related entries (UniProt P13693),0.964 ± 0.026,1 ± 0.016,0.956 ± 0.029,0.9833 ± 0.0083,0.958 ± 0.027,0.962 ± 0.035
A0A0J9YXZ6|A0A0J9YY83|Q4VXZ8 and related entries (UniProt Q9NUI1),1 ± 0.063,0.967 ± 0.034,1.02 ± 0.032,1.024 ± 0.0062,1.06 ± 0.013,1.04 ± 0.041
A0A0U1RQG6|A0A0U1RQM7|A0A0U1RR06|C9JYH8 and related entries (UniProt Q9Y484),0.986 ± 0.022,1.01 ± 0.014,0.995 ± 0.068,0.986 ± 0.018,0.981 ± 0.013,0.9495 ± 0.0073
A0A0U1RRB6|Q9Y2D4 (UniProt Q9Y2D4),1.01 ± 0.026,1.002 ± 0.0044,1.032 ± 0.0094,0.967 ± 0.02,0.982 ± 0.028,1 ± 0.045
A0A0A0MSS8|P42330 (UniProt P42330),1.05 ± 0.033,1 ± 0.035,1.05 ± 0.068,1.05 ± 0.051,1.09 ± 0.024,1.07 ± 0.066
A0A0A6YY92|P30566 (UniProt P30566),0.998 ± 0.026,0.963 ± 0.067,0.984 ± 0.013,0.954 ± 0.033,0.96 ± 0.041,0.945 ± 0.044
A0A087X0M0|Q7Z5L2 and related entries (UniProt Q7Z5L2),0.961 ± 0.02,0.961 ± 0.027,0.964 ± 0.02,0.972 ± 0.045,0.969 ± 0.055,0.962 ± 0.03
A0A0C4DGG9|F5GWX5 and related entries (UniProt Q14839),0.999 ± 0.037,1.03 ± 0.021,1.01 ± 0.047,1.04 ± 0.046,1.04 ± 0.04,1.07 ± 0.063
A0A087X1K6|H0YK05 and related entries (UniProt Q9Y2Y9),0.998 ± 0.029,0.998 ± 0.03,0.971 ± 0.024,1.01 ± 0.016,0.991 ± 0.03,0.996 ± 0.0047
A0A0G2JPP5|Q14160-3|A0A0G2JNZ2|Q14160 (UniProt Q14160),1.01 ± 0.011,1.03 ± 0.05,1.03 ± 0.012,0.9924 ± 0.0092,0.971 ± 0.015,0.985 ± 0.018
A0A0C4DGS0|P56556 and related entries (UniProt P56556),0.97 ± 0.016,0.972 ± 0.044,0.952 ± 0.047,0.996 ± 0.022,1.01 ± 0.068,1.02 ± 0.11
A0A087X1I8|Q7Z3E5 and related entries (UniProt Q7Z3E5),0.978 ± 0.035,0.95 ± 0.068,0.964 ± 0.021,0.963 ± 0.033,0.973 ± 0.015,0.954 ± 0.015
A0A087X0W8|Q04206 and related entries (UniProt Q04206),0.988 ± 0.025,1.01 ± 0.023,1.01 ± 0.018,1 ± 0.013,0.983 ± 0.044,0.994 ± 0.051
A0A087WWK8|A0A0C4DGT3|Q6DN90 (UniProt Q6DN90),0.984 ± 0.025,0.989 ± 0.029,0.989 ± 0.011,0.995 ± 0.025,0.99 ± 0.02,1.01 ± 0.029
A0A0C4DFL8|F5GX28 and related entries (UniProt O94953),1.01 ± 0.023,1.02 ± 0.024,1.04 ± 0.024,1.01 ± 0.041,1.01 ± 0.042,1.01 ± 0.045
A0A0D9SGE8|Q8IWS0 and related entries (UniProt Q8IWS0),1.019 ± 0.0064,1.05 ± 0.05,1.093 ± 0.01,1.13 ± 0.041,1.15 ± 0.065,1.18 ± 0.051
A0A0B4J2A4|K7EME0 and related entries (UniProt P42765),1.01 ± 0.025,1 ± 0.039,0.989 ± 0.064,0.994 ± 0.029,0.968 ± 0.025,0.979 ± 0.041
A0A0C4DGZ0 (UniProt P24928),0.995 ± 0.05,0.946 ± 0.091,0.99 ± 0.059,0.961 ± 0.077,0.961 ± 0.08,0.944 ± 0.11
A0A0C4DGA6|Q14527 (UniProt Q14527),1.02 ± 0.024,0.994 ± 0.073,1.02 ± 0.036,1.02 ± 0.041,1.02 ± 0.04,1.01 ± 0.04
A0A087WXF8|A0A087WXU5|A0A087WYF0|A0A0D9SEW3|E7EPF0 and related entries (UniProt Q9NP64),0.976 ± 0.047,0.996 ± 0.015,0.991 ± 0.065,1.05 ± 0.058,1.03 ± 0.061,1.01 ± 0.061
A0A087WWP8|A0A0C4DGT8|Q5VWQ0 (UniProt Q5VWQ0),1.08 ± 0.022,1.08 ± 0.032,1.15 ± 0.018,1.17 ± 0.035,1.16 ± 0.027,1.27 ± 0.057
UniProt A1L0T0 and related entries,0.969 ± 0.026,0.9902 ± 0.0095,0.9938 ± 0.0089,0.995 ± 0.023,1 ± 0.035,1.03 ± 0.025
A0A0A0MT35|Q8TBF2 and related entries (UniProt Q8TBF2),1 ± 0.038,0.996 ± 0.041,0.998 ± 0.048,1.01 ± 0.038,1.03 ± 0.026,1.04 ± 0.024
A0A0A0MRB7|P15923-2|X6REB3 (UniProt P15923),1.014 ± 0.0025,1.06 ± 0.085,1.02 ± 0.033,1 ± 0.014,0.962 ± 0.02,0.974 ± 0.041

# Seven successive entries from above:
Target,NP40-soluble protein abundance (concentration: 1mM),NP40-soluble protein abundance (concentration: 2mM),NP40-soluble protein abundance (concentration: 4mM),NP40-soluble protein abundance (concentration: 6mM),NP40-soluble protein abundance (concentration: 8mM),NP40-soluble protein abundance (concentration: 10mM)
A0A087X1I8|Q7Z3E5 and related entries (UniProt Q7Z3E5),0.978 ± 0.035,0.95 ± 0.068,0.964 ± 0.021,0.963 ± 0.033,0.973 ± 0.015,0.954 ± 0.015
A0A087X0W8|Q04206 and related entries (UniProt Q04206),0.988 ± 0.025,1.01 ± 0.023,1.01 ± 0.018,1 ± 0.013,0.983 ± 0.044,0.994 ± 0.051
A0A087WWK8|A0A0C4DGT3|Q6DN90 (UniProt Q6DN90),0.984 ± 0.025,0.989 ± 0.029,0.989 ± 0.011,0.995 ± 0.025,0.99 ± 0.02,1.01 ± 0.029
A0A0C4DFL8|F5GX28 and related entries (UniProt O94953),1.01 ± 0.023,1.02 ± 0.024,1.04 ± 0.024,1.01 ± 0.041,1.01 ± 0.042,1.01 ± 0.045
A0A0D9SGE8|Q8IWS0 and related entries (UniProt Q8IWS0),1.019 ± 0.0064,1.05 ± 0.05,1.093 ± 0.01,1.13 ± 0.041,1.15 ± 0.065,1.18 ± 0.051
A0A0B4J2A4|K7EME0 and related entries (UniProt P42765),1.01 ± 0.025,1 ± 0.039,0.989 ± 0.064,0.994 ± 0.029,0.968 ± 0.025,0.979 ± 0.041
A0A0C4DGZ0 (UniProt P24928),0.995 ± 0.05,0.946 ± 0.091,0.99 ± 0.059,0.961 ± 0.077,0.961 ± 0.08,0.944 ± 0.11
